Source: PMC9765674

Target: 3xFLAG-tagged VP3 of rotavirus SA11, expressed by the recombinant virus rSA11-VP3-3xFLAG (simian rotavirus SA11 (group A rotavirus))
Test: affinity purification with mass spectrometry; HT-29 cells pretreated with 20 uM MG-132 and infected (MOI 5) with rSA11-VP3-3xFLAG or rSA11-NSP1-3xFLAG-UnaG; harvested 7 h pi; clarified lysates immunoprecipitated with anti-FLAG M2 magnetic beads; LC-MS on Orbitrap Fusion Lumos

B1: RNase L, endogenous in HT-29 cells (enzyme, UniProt Q05823 1-741)
chain: MESRDHNNPQEGPTSSSGRRAAVEDNHLLIKAVQNEDVDLVQQLLEGGANVNFQEEEGGWTPLHNAVQMSREDIVELLLRHGADPVLRKKNGATPFILAAIAGSVKLLKLFLSKGADVNECDFYGFTAFMEAAVYGKVKALKFLYKRGANVNLRRKTKEDQERLRKGGATALMDAAEKGHVEVLKILLDEMGADVNACDNMGRNALIHALLSSDDSDVEAITHLLLDHGADVNVRGERGKTPLILAVEKKHLGLVQRLLEQEHIEINDTDSDGKTALLLAVELKLKKIAELLCKRGASTDCGDLVMTARRNYDHSLVKVLLSHGAKEDFHPPAEDWKPQSSHWGAALKDLHRIYRPMIGKLKFFIDEKYKIADTSEGGIYLGFYEKQEVAVKTFCEGSPRAQREVSCLQSSRENSHLVTFYGSESHRGHLFVCVTLCEQTLEACLDVHRGEDVENEEDEFARNVLSSIFKAVQELHLSCGYTHQDLQPQNILIDSKKAAHLADFDKSIKWAGDPQEVKRDLEDLGRLVLYVVKKGSISFEDLKAQSNEEVVQLSPDEETKDLIHRLFHPGEHVRDCLSDLLGHPFFWTWESRYRTLRNVGNESDIKTRKSESEILRLLQPGPSEHSKSFDKWTTKINECVMKKMNKFYEKRGNFYQNTVGDLLKFIRNLGEHIDEEKHKKMKLKIGDPSLYFQKTFPDLVIYVYTKLQNTEYRKHFPQTHSPNKPQCDGAGGASGLASPGC
  binding: no binding

Results are given in words; binding and its absence hold for the method and conditions named. Binding seen in cells or lysates may run through a third protein. Here binding means that the protein was enriched with, or labelled near, the bait; the list need not be complete. A no says only that the protein was not detected with the bait.
